Results are given in words; binding and its absence hold for the method and conditions named. Binding seen in cells or lysates may run through a third protein. Some results given as binding are weak or reduced against the parent protein; the word gives no strength. For some of these results: Tags and fused reporters may be left off the sequences shown.

Chains of the proteins cited; added tags and fusions are not shown.
UniProt O60674: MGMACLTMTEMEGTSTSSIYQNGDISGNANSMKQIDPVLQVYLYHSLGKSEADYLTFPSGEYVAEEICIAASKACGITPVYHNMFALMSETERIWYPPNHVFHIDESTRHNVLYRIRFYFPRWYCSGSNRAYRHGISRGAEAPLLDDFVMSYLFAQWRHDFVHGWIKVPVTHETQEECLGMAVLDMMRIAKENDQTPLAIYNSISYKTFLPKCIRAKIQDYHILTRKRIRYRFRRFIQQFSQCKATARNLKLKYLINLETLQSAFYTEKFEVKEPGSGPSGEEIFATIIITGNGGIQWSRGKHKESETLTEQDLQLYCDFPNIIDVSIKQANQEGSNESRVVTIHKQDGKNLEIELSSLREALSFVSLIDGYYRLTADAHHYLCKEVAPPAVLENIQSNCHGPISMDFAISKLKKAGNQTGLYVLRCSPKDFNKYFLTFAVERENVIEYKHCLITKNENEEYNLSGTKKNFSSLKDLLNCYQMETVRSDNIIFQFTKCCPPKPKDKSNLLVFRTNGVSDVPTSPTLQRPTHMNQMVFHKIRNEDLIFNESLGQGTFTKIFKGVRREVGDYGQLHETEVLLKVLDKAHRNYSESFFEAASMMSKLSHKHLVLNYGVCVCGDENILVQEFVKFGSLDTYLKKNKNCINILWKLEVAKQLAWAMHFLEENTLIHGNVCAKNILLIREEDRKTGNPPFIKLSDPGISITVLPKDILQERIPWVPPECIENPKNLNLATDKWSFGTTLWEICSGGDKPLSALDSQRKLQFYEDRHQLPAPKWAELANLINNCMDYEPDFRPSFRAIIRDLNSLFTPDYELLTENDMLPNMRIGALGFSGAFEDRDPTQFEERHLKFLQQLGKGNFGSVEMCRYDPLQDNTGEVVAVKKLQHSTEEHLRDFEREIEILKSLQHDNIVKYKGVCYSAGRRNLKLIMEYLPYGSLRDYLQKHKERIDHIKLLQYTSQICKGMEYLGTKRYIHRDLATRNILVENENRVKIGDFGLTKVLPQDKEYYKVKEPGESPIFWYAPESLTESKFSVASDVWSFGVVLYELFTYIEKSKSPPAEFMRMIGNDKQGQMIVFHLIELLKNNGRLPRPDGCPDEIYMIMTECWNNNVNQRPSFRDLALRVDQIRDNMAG
UniProt O95714: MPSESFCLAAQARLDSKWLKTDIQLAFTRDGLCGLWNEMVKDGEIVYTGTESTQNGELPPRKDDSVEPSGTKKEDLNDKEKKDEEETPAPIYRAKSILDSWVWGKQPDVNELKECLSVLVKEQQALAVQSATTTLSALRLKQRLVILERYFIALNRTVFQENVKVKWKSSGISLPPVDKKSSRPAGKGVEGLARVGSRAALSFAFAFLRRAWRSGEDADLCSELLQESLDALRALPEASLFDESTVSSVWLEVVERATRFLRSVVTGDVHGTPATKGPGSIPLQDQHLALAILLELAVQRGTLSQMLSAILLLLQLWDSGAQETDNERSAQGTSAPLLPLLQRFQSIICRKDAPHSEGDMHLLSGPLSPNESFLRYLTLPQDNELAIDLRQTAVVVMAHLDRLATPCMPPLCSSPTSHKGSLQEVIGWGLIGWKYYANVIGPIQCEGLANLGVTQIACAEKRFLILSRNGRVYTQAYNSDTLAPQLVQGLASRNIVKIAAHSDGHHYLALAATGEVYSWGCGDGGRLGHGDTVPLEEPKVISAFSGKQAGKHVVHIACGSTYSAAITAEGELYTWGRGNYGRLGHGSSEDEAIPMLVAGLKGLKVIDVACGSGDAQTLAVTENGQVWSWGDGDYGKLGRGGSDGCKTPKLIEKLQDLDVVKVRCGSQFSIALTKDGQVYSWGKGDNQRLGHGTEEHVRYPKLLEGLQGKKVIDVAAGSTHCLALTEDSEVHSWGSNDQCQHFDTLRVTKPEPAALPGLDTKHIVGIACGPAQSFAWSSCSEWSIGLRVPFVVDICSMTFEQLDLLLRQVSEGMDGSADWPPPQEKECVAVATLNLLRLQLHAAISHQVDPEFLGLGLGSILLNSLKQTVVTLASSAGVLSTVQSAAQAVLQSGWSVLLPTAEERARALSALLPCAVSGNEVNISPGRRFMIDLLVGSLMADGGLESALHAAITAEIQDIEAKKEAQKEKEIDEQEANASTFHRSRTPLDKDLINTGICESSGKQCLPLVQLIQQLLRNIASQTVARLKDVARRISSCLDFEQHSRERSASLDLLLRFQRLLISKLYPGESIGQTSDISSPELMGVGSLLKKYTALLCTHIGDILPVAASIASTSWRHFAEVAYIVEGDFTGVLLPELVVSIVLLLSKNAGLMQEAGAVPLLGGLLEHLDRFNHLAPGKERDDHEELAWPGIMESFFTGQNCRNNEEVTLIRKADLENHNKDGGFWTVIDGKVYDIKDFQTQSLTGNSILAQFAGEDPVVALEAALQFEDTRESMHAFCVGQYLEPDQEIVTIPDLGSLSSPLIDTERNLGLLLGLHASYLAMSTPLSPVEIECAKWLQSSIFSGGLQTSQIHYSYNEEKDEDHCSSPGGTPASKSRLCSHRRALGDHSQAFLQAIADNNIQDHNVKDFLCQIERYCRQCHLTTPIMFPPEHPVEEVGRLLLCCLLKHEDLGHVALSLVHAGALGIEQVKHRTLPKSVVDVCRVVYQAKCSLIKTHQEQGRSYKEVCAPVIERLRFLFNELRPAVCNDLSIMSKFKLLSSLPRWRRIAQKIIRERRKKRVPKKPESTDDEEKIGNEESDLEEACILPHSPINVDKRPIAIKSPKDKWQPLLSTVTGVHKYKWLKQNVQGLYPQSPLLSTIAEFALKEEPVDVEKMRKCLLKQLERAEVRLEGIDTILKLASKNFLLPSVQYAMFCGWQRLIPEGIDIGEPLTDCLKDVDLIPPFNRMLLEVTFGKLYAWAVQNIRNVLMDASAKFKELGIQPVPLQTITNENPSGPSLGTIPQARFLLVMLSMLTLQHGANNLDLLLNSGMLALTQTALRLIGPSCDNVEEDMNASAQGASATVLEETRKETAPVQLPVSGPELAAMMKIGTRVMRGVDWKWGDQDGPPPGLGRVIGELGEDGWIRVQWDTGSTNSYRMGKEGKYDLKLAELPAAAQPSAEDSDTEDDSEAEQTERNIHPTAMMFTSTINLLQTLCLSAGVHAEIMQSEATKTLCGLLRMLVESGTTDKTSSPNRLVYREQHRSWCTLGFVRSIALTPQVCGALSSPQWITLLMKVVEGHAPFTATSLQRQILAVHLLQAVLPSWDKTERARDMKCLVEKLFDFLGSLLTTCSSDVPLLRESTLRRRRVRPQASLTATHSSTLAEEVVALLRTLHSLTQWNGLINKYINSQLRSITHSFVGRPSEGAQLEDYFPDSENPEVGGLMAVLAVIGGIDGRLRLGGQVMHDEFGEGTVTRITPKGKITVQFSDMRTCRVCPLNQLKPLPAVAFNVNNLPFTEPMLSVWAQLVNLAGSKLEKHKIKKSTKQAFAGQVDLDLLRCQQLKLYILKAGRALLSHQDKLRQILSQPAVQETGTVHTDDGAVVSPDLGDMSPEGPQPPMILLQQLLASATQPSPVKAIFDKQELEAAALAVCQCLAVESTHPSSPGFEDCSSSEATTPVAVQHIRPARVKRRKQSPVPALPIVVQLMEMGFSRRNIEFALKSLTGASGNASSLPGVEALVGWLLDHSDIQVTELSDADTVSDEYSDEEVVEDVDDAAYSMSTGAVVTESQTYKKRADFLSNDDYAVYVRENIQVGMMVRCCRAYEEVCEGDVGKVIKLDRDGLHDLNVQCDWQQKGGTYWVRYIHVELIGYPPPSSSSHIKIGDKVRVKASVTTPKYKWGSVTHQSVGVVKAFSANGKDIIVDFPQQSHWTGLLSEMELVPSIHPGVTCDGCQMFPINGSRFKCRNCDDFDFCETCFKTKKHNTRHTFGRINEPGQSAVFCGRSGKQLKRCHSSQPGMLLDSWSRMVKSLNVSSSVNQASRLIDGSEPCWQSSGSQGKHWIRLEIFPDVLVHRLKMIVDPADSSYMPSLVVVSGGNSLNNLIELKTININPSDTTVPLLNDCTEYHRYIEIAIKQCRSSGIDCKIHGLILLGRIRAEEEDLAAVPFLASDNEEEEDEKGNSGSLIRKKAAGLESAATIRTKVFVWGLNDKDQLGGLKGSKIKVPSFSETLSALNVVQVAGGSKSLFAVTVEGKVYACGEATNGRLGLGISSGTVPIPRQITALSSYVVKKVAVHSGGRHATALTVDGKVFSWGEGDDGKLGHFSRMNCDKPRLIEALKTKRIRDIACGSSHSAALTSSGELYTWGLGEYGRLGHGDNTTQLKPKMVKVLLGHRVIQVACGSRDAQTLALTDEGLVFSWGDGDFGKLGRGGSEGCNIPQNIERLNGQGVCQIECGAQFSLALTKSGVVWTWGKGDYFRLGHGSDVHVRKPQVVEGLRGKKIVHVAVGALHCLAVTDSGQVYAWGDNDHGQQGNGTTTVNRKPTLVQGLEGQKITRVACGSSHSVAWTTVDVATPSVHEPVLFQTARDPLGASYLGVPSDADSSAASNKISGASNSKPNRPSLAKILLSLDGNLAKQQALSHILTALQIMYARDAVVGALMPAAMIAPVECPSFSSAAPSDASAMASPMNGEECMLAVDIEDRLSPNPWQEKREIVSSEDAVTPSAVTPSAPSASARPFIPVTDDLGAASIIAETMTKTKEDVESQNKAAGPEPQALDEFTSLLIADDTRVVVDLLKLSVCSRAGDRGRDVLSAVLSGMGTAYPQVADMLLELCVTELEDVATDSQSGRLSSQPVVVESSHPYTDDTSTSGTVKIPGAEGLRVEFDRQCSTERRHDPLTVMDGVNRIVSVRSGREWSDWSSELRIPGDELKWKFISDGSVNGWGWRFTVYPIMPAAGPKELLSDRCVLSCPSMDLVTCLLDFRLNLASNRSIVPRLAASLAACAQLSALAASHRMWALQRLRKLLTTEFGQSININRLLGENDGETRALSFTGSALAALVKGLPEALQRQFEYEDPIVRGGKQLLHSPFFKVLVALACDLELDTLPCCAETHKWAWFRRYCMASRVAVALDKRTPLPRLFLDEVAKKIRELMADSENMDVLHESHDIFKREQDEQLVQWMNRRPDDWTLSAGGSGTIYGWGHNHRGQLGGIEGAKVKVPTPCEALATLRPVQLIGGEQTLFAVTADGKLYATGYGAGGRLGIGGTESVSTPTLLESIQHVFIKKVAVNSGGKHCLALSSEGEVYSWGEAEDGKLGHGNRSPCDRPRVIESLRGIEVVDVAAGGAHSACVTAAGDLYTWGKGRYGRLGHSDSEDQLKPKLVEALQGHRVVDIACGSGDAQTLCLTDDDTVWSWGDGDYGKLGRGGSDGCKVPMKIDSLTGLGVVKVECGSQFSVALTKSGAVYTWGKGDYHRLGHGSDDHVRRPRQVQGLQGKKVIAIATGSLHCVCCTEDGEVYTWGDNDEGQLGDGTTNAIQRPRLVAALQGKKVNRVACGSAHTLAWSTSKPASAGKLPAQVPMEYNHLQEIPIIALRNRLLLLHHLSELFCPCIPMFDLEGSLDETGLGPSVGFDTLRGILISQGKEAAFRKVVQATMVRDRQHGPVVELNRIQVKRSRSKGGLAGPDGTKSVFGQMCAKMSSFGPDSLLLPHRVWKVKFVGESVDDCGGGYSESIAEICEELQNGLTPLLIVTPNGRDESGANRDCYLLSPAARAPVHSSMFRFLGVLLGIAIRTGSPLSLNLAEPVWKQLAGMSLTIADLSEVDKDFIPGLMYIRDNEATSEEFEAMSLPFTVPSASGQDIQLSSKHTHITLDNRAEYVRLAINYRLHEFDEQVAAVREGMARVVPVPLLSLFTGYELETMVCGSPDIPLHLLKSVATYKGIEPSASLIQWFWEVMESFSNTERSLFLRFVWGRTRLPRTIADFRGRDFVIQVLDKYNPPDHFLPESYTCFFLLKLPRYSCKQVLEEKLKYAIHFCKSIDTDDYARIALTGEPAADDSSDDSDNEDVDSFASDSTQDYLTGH

Assay [1] deals with Janus kinase 2 (JAK2) (human (endogenous in HCC cells)) (UniProt O60674). Put plainly: co-IP; endogenous JAK2 and PTP1B in HERC2 knockout and HERC2-overexpressing HCC cells and their controls, treated with 50 ng/ml IL-6 for 20 min.
Assay [2] concerns the target HECT and RLD domain-containing E3 ubiquitin-protein ligase 2 (HERC2) (human (endogenous in Huh7)) (UniProt O95714). Kind of assay: co-IP; endogenous proteins in Huh7 lysate, cells with or without 50 ng/ml IL-6 for 20 min (IL-6 enhanced the interaction); 1 ug antibody at 4 C overnight, protein A/G agarose.
Another assay deals with JAK2-GFP (UniProt O60674). Put plainly: co-IP; HEK293T co-transfected with JAK2-GFP and PTP1B-HA after transfection with HERC2 or mock plasmids; 50 ng/ml IL-6 for 20 min.
Another assay deals with HERC2-Flag (UniProt O95714). Kind of assay: co-IP; HEK293T co-transfected with HERC2-Flag and PTP1B-HA or PTP1B mutant-HA; anti-Flag magnetic beads at 4 C overnight; blot with anti-HA.

B1: protein tyrosine phosphatase 1B (PTP1B) (protein, UniProt P18031 1-435)
chain: MEMEKEFEQIDKSGSWAAIYQDIRHEASDFPCRVAKLPKNKNRNRYRDVSPFDHSRIKLHQEDNDYINASLIKMEEAQRSYILTQGPLPNTCGHFWEMVWEQKSRGVVMLNRVMEKGSLKCAQYWPQKEEKEMIFEDTNLKLTLISEDIKSYYTVRQLELENLTTQETREILHFHYTTWPDFGVPESPASFLNFLFKVRESGSLSPEHGPVVVHCSAGIGRSGTFCLADTCLLLMDKRKDPSSVDIKKVLLEMRKFRMGLIQTADQLRFSYLAVIEGAKFIMGDSSVQDQWKELSHEDLEPPPEHIPPPPRPPKRILEPHNGKCREFFPNHQWVKEETQEDKDCPIKEEKGSPLNAAPYGIESMSQDTEVRSRVVGGSLRGAQAASPAKGEPSLPEKDEDHALSYWKPFLVNMCVATVLTAGAYLCYRFLFNSNT
Take B1: the binding entry in assay [1] and in assay [2] was “binds” in each case.

B2: PTP1B-HA (protein, UniProt P18031 1-435)
chain: MEMEKEFEQIDKSGSWAAIYQDIRHEASDFPCRVAKLPKNKNRNRYRDVSPFDHSRIKLHQEDNDYINASLIKMEEAQRSYILTQGPLPNTCGHFWEMVWEQKSRGVVMLNRVMEKGSLKCAQYWPQKEEKEMIFEDTNLKLTLISEDIKSYYTVRQLELENLTTQETREILHFHYTTWPDFGVPESPASFLNFLFKVRESGSLSPEHGPVVVHCSAGIGRSGTFCLADTCLLLMDKRKDPSSVDIKKVLLEMRKFRMGLIQTADQLRFSYLAVIEGAKFIMGDSSVQDQWKELSHEDLEPPPEHIPPPPRPPKRILEPHNGKCREFFPNHQWVKEETQEDKDCPIKEEKGSPLNAAPYGIESMSQDTEVRSRVVGGSLRGAQAASPAKGEPSLPEKDEDHALSYWKPFLVNMCVATVLTAGAYLCYRFLFNSNT
With B2, the binding entry with JAK2-GFP and with HERC2-Flag was “binds” each time.

These data come from PMC9890722.
